We go through 6 molecules from patent US20220153853A1.

Results are given in words; binding and its absence hold for the method and conditions named. Binding calls can cover weak binding; strength is not graded here.

To fix the notation:
B1: ch1817 (antibody, human IgG4 S228P, kappa, F234A L235A, V domains shown)
VH: EVQLVESGGDLVQPGRSMKLSCAASGFTFSNYYMAWVRQAPTKGLEWVASISTGGVNTYYRDSVKGRFTISRDNAKNNLYLQMDSLRSEETATYYCARHTTADYFYGIYFALDAWGQGTSVTVSS
VL: QFTLTQPKSVSGSLRSTITIPCERSSGDIGDSYVNWYQQHLGRPPLNVIYADVQRPSEVSDRFSGSIDSSSNSASLTITNLQMDDEADYFCQSYDTNIDIIFGGGTKLTVLR
B2: ch1822 (antibody, human IgG4 S228P, kappa, F234A L235A, V domains shown)
VH: EVRLVESGGDFVQPGRSVKLSCAASGFTFSNYYMAWVRQAPTKGLEWVGSISTGGVNTYYRDSVKGRFTISRDNAESTLYLQMDSLRSEETATYYCARHTTPDYHYGIYFAMDAWGQGTSVTVSS
VL: QVTLTQPKSVSGSLRSTITIPCERSSGDIGESYVNWYQQHLGRPPINVIYADDQRPSEVSDRFSGSIDSSSNSASLTITNLQVDDEADYFCQSYDSSIDIFFGGGTKLTVLR
B3: ch1803 (antibody, human IgG4 S228P, kappa, F234A L235A, V domains shown)
VH: QFQLHQSGAELVKPGASVKLSCKATGYTFTDYWIEWVKQRPGHGLEWIGEILPGSTYTNYNEKFKGRATFTAEPSSSSAYMQLSGLTTEDSAIYYCSRGLSTLMAVDYFDYWGQGTTLTVSS
VL: DIQMTQTTSSLSASLGDRVTINCRASQDISNYLNWYQQKPDGTVKLLIYYSSTLHSGVPSRFSGSGSGTDYSLTISHLEQEDIATYFCQQTNIFPWTFGGGTKLEIRT
B4: ch1808 (antibody, human IgG4 S228P, kappa, F234A L235A, V domains shown)
VH: QVQLQQSGAELARPGASVKLSCKASGDTFTTNGISWVKQRIGQGLEWIGEIYPRSGNTYYNENFKGKATLTADKSSTTAYMELRRLTSEDSAVYFCARSITSVIGADYFDYWGQGTTLTVSS
VL: DIQMTQTTSSLSASLGDRVTISCRASQDISNYLNWYQKKPDGTVKLLIYYSSTLHSGVPSRFSGSGSGTDYSLTISNLEQEDIATYFCQQGNTFPWTFGGGTKLEIKR
B5: ch1810 (antibody, human IgG4 S228P, kappa, F234A L235A, V domains shown)
VH: QVQLQQSGTELARPGTSVTLSCKASGYTFTNYAISWVKQRTGQGLEWIGEIYPTSGNTYYNEKFKGKATLTADRSSKTMYMELRSLTSVDSAVYFCASGVITTVVSTDYFDYWGQGSPLTVSS
VL: DIQMTQIPSSLSVSLGDRVTISCRASLDISNYLNWYQLKPDGTVKLLIYYTSTLHSGVSSRFSGSGSGTEYSLTISNLEQEDIATYFCQQGNMVPYTFGGGTKLEIKR
B6: ch1805 (antibody, human IgG4 S228P, kappa, F234A L235A, V domains shown)
VH: EVQLQQSGPELVKPGASVKIPCKTSGYTFTDYNMDWVKQSHGRSLEWIGSIDPDNGGTIYNQKFKGKATLTVDKSSSTAYMELRSLTSEDTAVYYCTRDYYGSSSWFAYWGQGTLVTVSA
VL: DVVMTQSPATLSVTPGDRVSLSCRASQSISDYLHWYQQKSHESPRLLIKYASQSISGIPSRFSGSGSGSDFTLSINSVEPEDVGVYYCQNGHSFPYTFGGGTKLEIKR

The target in the assay is Cynomolgus monkey GCGR (cynomolgus monkey). As to the kind of experiment: cell ELISA on fixed CHO cells overexpressing GCGR. On the technique in general: An ELISA detects its analyte on a solid surface through an enzyme-linked reagent.
Regarding B1, the binding entry is “binds”. Under B2 stands “binds”; under B3, “binds”. As for B4, the binding result is given as “binds”.

For B5, the binding entry is recorded as “binds”. Under B6 stands “binds”.
